Results published in PubChem BioAssay AID248 (DTP/NCI, 2004).
The list does not hold the whole screen: it gathers tests that were run many times, whatever their T/C, doses with no T/C, and many T/C values between a quarter and a half above the control. Other doses and runs of a compound stand elsewhere. T/C is the treated group as % of the vehicle group. Some doses have a count of surviving animals in place of a T/C: the source holds a T/C of zero for them, seemingly a mark for toxic or unscored doses. Some doses without a T/C left all or most animals alive at the check, yet need not have been tolerated: the source hardly ever lists a survival T/C far under the control, and the zero likely stands for such cases as well. Survivors were counted at the toxicity check, usually on the fifth day, unless a day is given; later deaths do not show. Schedules are NCI's codes, read here as Q, the interval in days (D) or hours (H), X, the number of doses. Some entries hold several experiments; the results are listed from low to high. Some schedules carry Z or #; the key to these is not given. Where survival is the endpoint, the PubChem record calls one and a half times the control and up active, and a quarter to a half above the control has no call in these data; cut-offs in other NCI protocols can differ. Some T/C values carry the count of animals alive at the toxicity check (mostly the fifth day); where none is given, no animal had died by that day.

Tested on: L1210 leukemia ip in BDF1 mice, survival T/C
Assay: NCI In Vivo Anticancer Drug Screen. Data for tumor model L1210 Leukemia (intraperitoneal) in B6D2F1 (BDF1) mice
Settings: T/C endpoint: mean survival time, higher T/C = longer survival
[1] = dose: 100.0 mg/kg/injection, schedule: Q01DX009 (ip), vehicle: Klucel (hydroxypropylcellulose) (HPC)
[2] = dose: 400.0 mg/kg/injection, schedule: Q01DX009 (ip), vehicle: Klucel (hydroxypropylcellulose) (HPC)
[3] = dose: 400.0 mg/kg/injection, schedule: Q04DX002 (ip), vehicle: Klucel (hydroxypropylcellulose) (HPC)
[4] = dose: 400.0 mg/kg/injection, schedule: Q04DX003 (ip), vehicle: saline with Tween-80

Question: What does the source list for `CC1(C)N=C(N)N=C(N)N1c1ccc(OCc2ccc(C(=O)Nc3cccc(S(=O)(=O)F)c3)cc2)c(Cl)c1`?
Answer: T/C (dose: 25.0 mg/kg/injection, schedule: Q01DX009 (ip), vehicle: Klucel (hydroxypropylcellulose) (HPC)): 133 % of control [5 of 6 alive]; T/C [1]: 95, 102, 164 % of control; survivor count [1]: 2 of 6; T/C (dose: 100.0 mg/kg/injection, schedule: Q04DX003 (ip), vehicle: Klucel (hydroxypropylcellulose) (HPC)): 133 and 146 % of control [5 of 6 alive]; survivor count (dose: 200.0 mg/kg/injection, schedule: Q01DX009 (ip), vehicle: Klucel (hydroxypropylcellulose) (HPC)): 6 of 6; T/C (dose: 200.0 mg/kg/injection, schedule: Q04DX003 (ip), vehicle: Klucel (hydroxypropylcellulose) (HPC)): 140 % of control; survivor count [2]: 4 of 6

Question: Which results are given for `CCCNC(=O)Oc1cccc2cccnc12`?
Answer: survivor count [2]: 2 of 6; survivor count [3]: 3 of 3 and 6 of 6

Question: For `Cc1ccc(NC(=O)c2ccccc2-c2ccccc2C(=O)Nc2ccc(C)cc2)cc1`, which survivor count (dose: 200.0 mg/kg/injection, schedule: Q01DX001 (ip), vehicle: other) is on record?
Answer: 4 of 4

Question: And the survivor count (dose: 400.0 mg/kg/injection, schedule: Q01DX001 (ip), vehicle: other)?
Answer: 4 of 4

Question: With `COc1ccc(C2C(=O)c3ccccc3C2=O)cc1OC` as the compound, how does the survivor count (dose: 400.0 mg/kg/injection, schedule: Q01DX001 (ip), vehicle: Klucel (hydroxypropylcellulose) (HPC)) read?
Answer: 0 of 6

Question: `CCOC(=O)C(CC(C)C)NC(=O)CCCCSc1ncnc2nc[nH]c12` (stereo not given) was tested. Which T/C (dose: 800.0 mg/kg/injection, schedule: Q01DX009 (ip), vehicle: saline with Tween-80) did it give?
Answer: 129 % of control

Question: For `O=C(CC(C(=O)c1ccccc1)N1CC1)c1ccccc1` (stereo not given), which survivor count (dose: 200.0 mg/kg/injection, schedule: Q01DX009 (ip), vehicle: saline sonified) is on record?
Answer: 1 of 6

Question: For `CCCCNC(=O)C1C=C2c3cccc4c3C(CN4)CC2N(C)C1` (stereo not given), which survivor count (dose: 100.0 mg/kg/injection, schedule: Q01DX009 (ip), vehicle: saline with Tween-80) is on record?
Answer: 6 of 6

Question: For `Nc1nc2nc[nH]c2c(Cl)c1Br`, which survivor count [3] is on record?
Answer: 0 of 3

Question: For `CCCC(C)CN` (stereo not given), which survivor count (dose: 200.0 mg/kg/injection, schedule: Q01DX009 (ip), vehicle: saline with Tween-80) is on record?
Answer: 2 of 6

Question: And the survivor count [4]?
Answer: 0 of 6

Question: How did the survivor count (dose: 400.0 mg/kg/injection, schedule: Q04DX003 (ip), vehicle: Klucel (hydroxypropylcellulose) (HPC)) turn out when `O=C(O)CCC1CCCCC1=O` (stereo not given) was run?
Answer: 3 of 6

Question: How did the survivor count [4] turn out when `Oc1cc2c(O)cccc2c2ccccc12` was run?
Answer: 0 of 6

Question: What does the source list for `O=C(Nc1cccc(C2=NCCN2)c1)Nc1cc(C(=O)Nc2ccc(C3=NCCN3)cc2)ccc1C(=O)Nc1ccc(C2=NCCN2)cc1`?
Answer: survivor count (dose: 15.0 mg/kg/injection, schedule: Q01DX Z (ip), vehicle: saline): 0 of 6; survivor count (dose: 30.0 mg/kg/injection, schedule: Q01DX Z (ip), vehicle: saline): 0 of 6; survivor count (dose: 60.0 mg/kg/injection, schedule: Q01DX Z (ip), vehicle: saline): 0 of 6; survivor count (dose: 120.0 mg/kg/injection, schedule: Q01DX Z (ip), vehicle: saline): 0 of 6; survivor count (dose: 500.0 mg/kg/injection, schedule: Q01DX010 (oral), vehicle: saline): 2 of 6

Question: Which survivor count (dose: 400.0 mg/kg/injection, schedule: Q01DX001 (ip), vehicle: steroid suspending solution) does the source give for `N#C/C(=C(/Cc1ccc(F)cc1)NP(=O)(c1ccccc1)c1ccccc1)c1ccc(F)cc1` here?
Answer: 6 of 6

Question: How did the survivor count (dose: 26.6 mg/kg/injection, schedule: Q01DX Z (ip), vehicle: saline) turn out when `CC(=O)OC1CCCC(OCC(C)C)O1` (stereo not given) was run?
Answer: 6 of 6

Question: What does the source list for `COc1cc([C@@H]2c3cc4c(cc3[C@H](O)[C@H]3COC(=O)[C@H]23)OCO4)cc(OC)c1OC`?
Answer: survivor count (dose: 2.7 mg/kg/injection, schedule: Q01DX Z (ip), vehicle: carboxymethylcellulose (CMC)): 5 of 10; survivor count (dose: 75.0 mg/kg/injection, schedule: Q01DX001 (ip), vehicle: carboxymethylcellulose (CMC)): 2 of 6; survivor count (dose: 150.0 mg/kg/injection, schedule: Q01DX001 (ip), vehicle: carboxymethylcellulose (CMC)): 0 of 6; survivor count (dose: 300.0 mg/kg/injection, schedule: Q01DX001 (ip), vehicle: carboxymethylcellulose (CMC)): 0 of 6

Question: With `CCCC(=O)Nc1cccc(OC(=O)NC)c1` as the compound, how does the survivor count (dose: 200.0 mg/kg/injection, schedule: Q04DX003 (ip), vehicle: saline with Tween-80) read?
Answer: 6 of 6

Question: With `CC(=O)c1cccc(N=C=O)c1` as the compound, how does the survivor count (dose: 100.0 mg/kg/injection, schedule: Q01DX001 (ip), vehicle: saline with Tween-80) read?
Answer: 0 of 3

Question: And the survivor count (dose: 200.0 mg/kg/injection, schedule: Q01DX001 (ip), vehicle: saline with Tween-80)?
Answer: 0 of 3

Question: What about the survivor count (dose: 400.0 mg/kg/injection, schedule: Q01DX001 (ip), vehicle: saline with Tween-80) of the same compound?
Answer: 0 of 3
